Results are given in words; binding and its absence hold for the method and conditions named. Some entries that bind do so weakly or less than the wild type.
What was measured:
[1] = target: 人PCSK9抗原多肽 (前蛋白转化酶枯草溶菌素9, PCSK9) (human) (UniProt Q8NBP7); assay: ELISA, PCSK9 coated (100 ng), purified nanobody, anti-HA detection
[2] = target: 人PCSK9抗原多肽 (前蛋白转化酶枯草溶菌素9, PCSK9) (human) (UniProt Q8NBP7); assay: ProteOn (SPR), PCSK9 immobilised on chip

Chains of the proteins cited; added tags and fusions are not shown. Lines headed by an entry give the natural chain unless they say otherwise; changes in a name come on top.
UniProt Q8NBP7: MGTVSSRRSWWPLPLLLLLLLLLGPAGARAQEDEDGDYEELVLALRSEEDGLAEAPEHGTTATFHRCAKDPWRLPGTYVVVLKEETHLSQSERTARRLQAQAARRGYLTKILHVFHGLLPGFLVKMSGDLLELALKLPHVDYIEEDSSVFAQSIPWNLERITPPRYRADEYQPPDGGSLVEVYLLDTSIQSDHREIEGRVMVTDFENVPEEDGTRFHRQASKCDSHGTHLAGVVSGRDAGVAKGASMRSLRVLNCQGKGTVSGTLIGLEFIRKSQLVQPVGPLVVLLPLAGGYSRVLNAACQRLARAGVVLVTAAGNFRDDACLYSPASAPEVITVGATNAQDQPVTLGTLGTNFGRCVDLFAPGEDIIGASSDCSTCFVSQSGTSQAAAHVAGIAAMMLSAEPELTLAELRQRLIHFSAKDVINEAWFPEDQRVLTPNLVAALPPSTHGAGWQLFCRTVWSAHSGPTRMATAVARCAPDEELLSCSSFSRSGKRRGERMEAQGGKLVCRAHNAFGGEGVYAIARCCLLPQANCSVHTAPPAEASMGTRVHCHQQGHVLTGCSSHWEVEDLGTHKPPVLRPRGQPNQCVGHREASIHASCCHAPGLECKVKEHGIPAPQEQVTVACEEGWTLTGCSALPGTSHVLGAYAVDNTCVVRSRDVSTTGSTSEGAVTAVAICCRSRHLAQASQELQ

B1: PCSK9纳米抗体 (VHH, not shown: small tags and cut ends)
VHH: ESGGGSVQAGGSLRLSCTVSGYTYSSNCMGWFRQAPGKEHEGVASIYIGGGSTYYADSVKGRFTISQDNAKNTVYLQMNSLKPEDTAMYYCAVGCQGLVDFGYWDQGTQVTVSS
[1]
  binding: binds
[2]
  binding: binds

Source: CN109897110A
